Source: PMC3667761
No constants are given. Whether binding was seen depends on the method and setting. In cells and extracts the contact can be indirect. Some binding calls cover weakened binding; strength is not graded here. For some assays here: Tags and fused reporters may be left off the sequences shown. Values belong to the binder of their own block, whether it stands above or below them.

Experiments:
Settings in all cases: remark: other sources report otherwise
[1] = biological target: human p21 (in CHO cells) (human), P38936; experiment: co-IP; CHO cells transfected with cyclin D3 (or cyclin D1-Flag), CDK4-HA and p21 or their mutants; IP with anti-cyclin D3 (DCS-28), anti-p21 or anti-Flag; SDS-PAGE or 2D gel and immunoblot; some immunoprecipitates incubated with ATP and recombinant kinases before the gel
[2] = biological target: p21 (human (endogenous in HCT116)), P38936; experiment: co-IP; HCT116 K7AS cells transfected with cyclin D3 and CDK4-HA, with or without 1-NMPP1 for 48 h; IP with anti-cyclin D3 or anti-p21; 2D gel, anti-CDK4 blot
[3] = biological target: 3×HA-p21 wt (human), P38936; experiment: co-IP; HCT116 K7AS cells with Tet-On inducible 3×HA-p21 wt or mutants, doxycycline 16 h then FBS 16 h; IP with anti-HA; 2D gel, immunodetection with a mixture of anti-CDK4 and p21 antibodies
[4] = biological target: 3×HA-p21 wt (human), P38936; experiment: co-IP; HCT116 K7AS cells with inducible 3×HA-p21 wt or T57D, serum-deprived 48 h, doxycycline 16 h; anti-HA immunoprecipitates incubated with ATP with or without recombinant cyclin A2-CDK2, then with or without CAK; 2D gel, anti-CDK4 and p21 antibodies
[5] = biological target: p21 (human (endogenous in HCT116)), P38936; experiment: co-IP; endogenous proteins from HCT116 lysates (wt, K7AS, p21-null); IP with anti-cyclin D1 (DCS-11), anti-cyclin D3 (DCS-28) or anti-p21 (C-19); SDS-PAGE or 2D gel and immunoblot; cells serum-deprived or stimulated with FBS, with or without 1-NMPP1, roscovitine, CR8, PD0332991 or MG132

binding [1]: binds
B1: CDK4-HA (in CHO cells), P11802 1-303 (enzyme)
chain: MATSRYEPVAEIGVGAYGTVYKARDPHSGHFVALKSVRVPNGGGGGGGLPISTVREVALLRRLEAFEHPNVVRLMDVCATSRTDREIKVTLVFEHVDQDLRTYLDKAPPPGLPAETIKDLMRQFLRGLDFLHANCIVHRDLKPENILVTSGGTVKLADFGLARIYSYQMALTPVVVTLWYRAPEVLLQSTYATPVDMWSVGCIFAEMFRRKPLFCGNSEADQLGKIFDLIGLPPEDDWPRDVSLPRGAFPPRGPRPVQSVVPEMEESGAQLLLEMLTFNPHKRISAFRALQHSYLHKDEGNPE

binding [2]: binds
B2: CDK4-HA (in HCT116 K7AS cells), P11802 1-303 (enzyme)
chain: B1 chain

binding [3]: binds
binding [4]: binds
binding [5]: binds
B3: CDK4, P11802 1-303 (enzyme)
chain: B1 chain
